The values below come from the supplement of paper PMC6411743.

This experiment concerns the target T1, E9PER6 and related entries (UniProt O15530).
T1 sequence (whole entry): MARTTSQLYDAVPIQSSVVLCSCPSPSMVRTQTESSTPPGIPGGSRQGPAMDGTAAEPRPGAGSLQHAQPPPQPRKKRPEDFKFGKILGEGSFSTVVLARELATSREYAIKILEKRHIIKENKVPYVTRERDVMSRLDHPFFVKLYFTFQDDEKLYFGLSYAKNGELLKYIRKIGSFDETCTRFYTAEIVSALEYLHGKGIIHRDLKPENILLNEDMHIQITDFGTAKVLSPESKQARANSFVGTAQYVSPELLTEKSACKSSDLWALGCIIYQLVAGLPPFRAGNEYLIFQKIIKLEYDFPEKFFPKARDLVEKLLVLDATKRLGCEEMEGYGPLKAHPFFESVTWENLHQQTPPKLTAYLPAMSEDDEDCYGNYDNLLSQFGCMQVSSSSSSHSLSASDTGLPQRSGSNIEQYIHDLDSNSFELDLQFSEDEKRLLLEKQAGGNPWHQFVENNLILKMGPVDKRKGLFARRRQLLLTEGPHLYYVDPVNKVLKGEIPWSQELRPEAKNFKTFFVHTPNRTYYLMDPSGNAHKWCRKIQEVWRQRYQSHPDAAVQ
Nature of the experiment: NP40-soluble protein abundance relative to vehicle (solubility fold change) (ratio); higher = more soluble protein in presence of GTP. On the procedure:
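Solubility proteome profiling in Jurkat crude lysate. Lysate was treated with Mg-GTP (0.1-10 mM) for 10 min at room temperature and 3 min at 37 °C, then solubilised with 0.8% NP40 and benzonase, followed by ultracentrifugation. Proteins were quantified by TMT10 LC-MS/MS; the value is the NP40-soluble abundance relative to the NP40-processed vehicle, from 3 independent experiments.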

Each structure is given as a SMILES string. ± gives the standard deviation of the averaged measurements. The list shows a part of the results.

On to `Nc1nc2c(ncn2[C@@H]2O[C@H](COP(=O)(O)OP(=O)(O)OP(=O)(O)O)[C@@H](O)[C@H]2O)c(=O)[nH]1` [guanosine triphosphate], for which the NP40-soluble protein abundance by setting is: (concentration: 0.1mM) 1.05 ± 0.034; (concentration: 0.5mM) 1.05 ± 0.02; (concentration: 1mM) 0.953 ± 0.04; (concentration: 2mM) 0.969 ± 0.052; (concentration: 4mM) 0.944 ± 0.055; (concentration: 6mM) 0.943 ± 0.034. Moreover, the NP40-soluble protein abundance (concentration: 8mM) amounted to 0.917 ± 0.017 and the NP40-soluble protein abundance (concentration: 10mM) is 0.898 ± 0.035.
